Laboratory results: publication PMC3743401

Protein sequences, listed by entry. Tags and fused reporters are not part of them. Lines headed by an entry give the natural chain unless they say otherwise; changes in a name come on top.
UniProt Q9Y6K9: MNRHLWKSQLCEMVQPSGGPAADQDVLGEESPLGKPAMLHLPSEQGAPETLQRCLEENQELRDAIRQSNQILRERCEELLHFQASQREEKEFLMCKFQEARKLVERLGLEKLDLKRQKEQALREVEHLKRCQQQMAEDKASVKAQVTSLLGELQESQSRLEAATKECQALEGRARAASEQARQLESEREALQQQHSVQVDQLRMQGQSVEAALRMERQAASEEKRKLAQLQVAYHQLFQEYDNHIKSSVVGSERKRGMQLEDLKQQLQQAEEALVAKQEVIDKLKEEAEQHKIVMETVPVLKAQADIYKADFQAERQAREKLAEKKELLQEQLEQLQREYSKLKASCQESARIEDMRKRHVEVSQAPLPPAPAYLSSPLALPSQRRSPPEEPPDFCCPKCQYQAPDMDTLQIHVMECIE
UniProt Q7Z434: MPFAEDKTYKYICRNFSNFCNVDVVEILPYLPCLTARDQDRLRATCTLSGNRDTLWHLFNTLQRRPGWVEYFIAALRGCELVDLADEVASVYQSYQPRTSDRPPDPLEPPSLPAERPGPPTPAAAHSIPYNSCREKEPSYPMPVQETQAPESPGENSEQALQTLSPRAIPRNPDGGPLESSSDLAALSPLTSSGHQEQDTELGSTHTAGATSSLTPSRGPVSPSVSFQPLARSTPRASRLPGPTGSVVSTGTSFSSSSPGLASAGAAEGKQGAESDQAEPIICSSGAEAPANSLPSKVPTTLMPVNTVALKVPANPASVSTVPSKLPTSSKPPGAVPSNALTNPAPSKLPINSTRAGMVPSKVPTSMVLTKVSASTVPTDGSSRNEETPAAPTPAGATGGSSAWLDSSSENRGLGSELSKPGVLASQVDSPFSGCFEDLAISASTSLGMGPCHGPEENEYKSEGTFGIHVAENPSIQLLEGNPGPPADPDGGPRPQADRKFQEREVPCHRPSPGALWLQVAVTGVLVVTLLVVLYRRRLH

Target: Flag-NEMO UBD mutant (UBDm; Y308S/H413A/C417A), purified (human) (UniProt Q9Y6K9)
Experiment: co-IP; in vitro: 200 ng purified Flag-NEMO (WT or UBDm), 200 ng His6-MAVSΔTM, in the presence of 200 μg HeLa S100, 2 mM ATP, 5 mM MgCl2, 20 mM HEPES-KOH pH 7.0, 30°C for 1 hr; Flag (M2) agarose at 4°C overnight; immunoblot of MAVS; both purified

With “His6-MAVSΔTM (MAVS without its transmembrane domain) (from UniProt Q7Z434) (domain or fragment)” the binding was “no binding”.

These are yes or no findings as the source states them, for the method shown. Binding seen in cells or lysates may run through a third protein.
